PubChem BioAssay AID1053209 – Peter MacCallum Cancer Centre, 2014

Purpose: 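Follow-up of single siRNAs that strengthen doxorubicin killing in osteosarcoma cells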 (follow-up of hits)
Cell system: mouse primary osteosarcoma cells
Reagents: single siRNA against mouse genes, 25 nM (text also states 40 nM)
Timing: about 120 h (48 h before drug, then 72 h with drug)
Conditions: doxorubicin 100 nM (about IC30-40), added 48 h after transfection, for 72 h
Detection: 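ATP-based luminescent viability, with or without doxorubicin, relative to non-targeting control NT1, mean of two replicates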
Reading the numbers: viability with doxorubicin, vs NT1: higher = more viable cells under doxorubicin; viability ratio, doxorubicin over no drug: higher = less sensitisation to doxorubicin; viability without drug, vs NT1: higher = more viable cells without drug
Call rule: 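Counted as active (class LC dox) if viability falls to 0.7 of NT1 or below under doxorubicin but stays within 0.7 to 1.1 without drug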
The whole screen tested about 1,580 reagents; shown is a part drawn at random. 207 of all reagents (13%) count as active. 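Rows are single siRNAs; four siRNAs per gene were tested, a gene counting as confirmed only when at least two agree.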 A number with no mark means an inactive call. Reagents against one gene are numbered here. No sequences are given here.

target	siRNA no.	combined effect class	viability with doxorubicin, vs NT1	viability ratio, doxorubicin over no drug	viability without drug, vs NT1
Tcp11l1 (t-complex 11 like 1)	1	low viability with and without drug	0.2	0.32	0.62
Tcp11l1 (t-complex 11 like 1)	2	normal viability with and without drug	1.06	1.04	1.02
Tcp11l1 (t-complex 11 like 1)	3	normal viability with and without drug	1.01	0.97	1.04
Tcp11l1 (t-complex 11 like 1)	4	normal viability with and without drug	1.09	1.01	1.08
Psma3 (proteasome subunit alpha 3)	1	low viability with and without drug	0.16	0.27	0.59
Psma3 (proteasome subunit alpha 3)	2	low viability with and without drug	0.29	0.41	0.7
Psma3 (proteasome subunit alpha 3)	3	low viability with and without drug	0.31	0.5	0.62
Psma3 (proteasome subunit alpha 3)	4	low viability with and without drug	0.24	0.77	0.31
Lrp2bp (Lrp2 binding protein)	1	high viability only without drug	0.92	0.81	1.14
Lrp2bp (Lrp2 binding protein)	2	normal viability with and without drug	0.92	0.9	1.02
Lrp2bp (Lrp2 binding protein)	3	normal viability with and without drug	0.73	0.79	0.92
Lrp2bp (Lrp2 binding protein)	4	normal viability with and without drug	1.01	0.97	1.04
Rb1cc1 (RB1-inducible coiled-coil 1)	1	normal viability with and without drug	0.95	1.02	0.93
Rb1cc1 (RB1-inducible coiled-coil 1)	2	normal viability with and without drug	0.88	1	0.88
Rb1cc1 (RB1-inducible coiled-coil 1)	3	low viability only with doxorubicin; normal without drug (active)	0.64	0.67	0.95
Rb1cc1 (RB1-inducible coiled-coil 1)	4	normal viability with and without drug	0.93	0.98	0.95
Sf3b1 (splicing factor 3b, subunit 1)	1	low viability only with doxorubicin; normal without drug (active)	0.49	0.56	0.88
Sf3b1 (splicing factor 3b, subunit 1)	2	low viability only with doxorubicin; normal without drug (active)	0.55	0.59	0.94
Sf3b1 (splicing factor 3b, subunit 1)	3	low viability with and without drug	0.1	0.2	0.49
Sf3b1 (splicing factor 3b, subunit 1)	4	low viability with and without drug	0.09	0.35	0.26
Nipbl (NIPBL cohesin loading factor)	1	low viability only with doxorubicin; normal without drug (active)	0.68	0.94	0.72
Nipbl (NIPBL cohesin loading factor)	2	normal viability with and without drug	0.84	1.04	0.81
Nipbl (NIPBL cohesin loading factor)	3	normal viability with and without drug	0.78	0.8	0.98
Nipbl (NIPBL cohesin loading factor)	4	normal viability with and without drug	0.82	0.94	0.87
Fbn1 (fibrillin 1)	1	normal viability with and without drug	0.92	0.94	0.98
Fbn1 (fibrillin 1)	2	normal viability with and without drug	0.84	0.93	0.9
Fbn1 (fibrillin 1)	3	normal viability with and without drug	0.95	1.01	0.94
Fbn1 (fibrillin 1)	4	normal viability with and without drug	1.08	1.19	0.91
Dhx15 (DEAH-box helicase 15)	1	normal viability with and without drug	0.95	1.02	0.93
Dhx15 (DEAH-box helicase 15)	2	normal viability with and without drug	0.96	1.04	0.92
Dhx15 (DEAH-box helicase 15)	3	normal viability with and without drug	0.85	0.86	0.99
Dhx15 (DEAH-box helicase 15)	4	normal viability with and without drug	0.76	0.8	0.95
Slc39a7	1	normal viability with and without drug	0.86	0.93	0.92
Slc39a7	2	low viability only with doxorubicin; normal without drug (active)	0.63	0.72	0.88
Slc39a7	3	normal viability with and without drug	0.73	0.75	0.97
Slc39a7	4	low viability only with doxorubicin; normal without drug (active)	0.6	0.77	0.78
Apobec1	1	normal viability with and without drug	1	1	1
Apobec1	2	high viability only with doxorubicin	1.14	1.14	1
Apobec1	3	normal viability with and without drug	1	1.04	0.96
Apobec1	4	normal viability with and without drug	1.02	0.96	1.06
Rps17 (ribosomal protein S17)	1	low viability with and without drug	0.19	0.76	0.25
Rps17 (ribosomal protein S17)	2	low viability with and without drug	0.31	0.65	0.48
Rps17 (ribosomal protein S17)	3	low viability with and without drug	0.24	0.89	0.27
Rps17 (ribosomal protein S17)	4	low viability with and without drug	0.42	0.74	0.57
Sf3b4 (splicing factor 3b, subunit 4)	1	normal viability with and without drug	0.86	0.9	0.96
Sf3b4 (splicing factor 3b, subunit 4)	2	normal viability with and without drug	0.84	0.91	0.92
Sf3b4 (splicing factor 3b, subunit 4)	3	normal viability with and without drug	1.02	0.96	1.06
Sf3b4 (splicing factor 3b, subunit 4)	4	low viability with and without drug	0.19	0.35	0.55
E2f5 (E2F transcription factor 5)	1	normal viability with and without drug	1.04	1.16	0.9
E2f5 (E2F transcription factor 5)	2	normal viability with and without drug	0.94	0.9	1.04
E2f5 (E2F transcription factor 5)	3	high viability only with doxorubicin	1.1	1.02	1.08
E2f5 (E2F transcription factor 5)	4	normal viability with and without drug	0.96	1.01	0.95
Brat1 (BRCA1-associated ATM activator 1)	1	normal viability with and without drug	0.82	0.79	1.04
Brat1 (BRCA1-associated ATM activator 1)	2	normal viability with and without drug	0.79	0.76	1.04
Brat1 (BRCA1-associated ATM activator 1)	3	normal viability with and without drug	0.97	0.95	1.02
Brat1 (BRCA1-associated ATM activator 1)	4	normal viability with and without drug	0.86	0.87	0.99
Spata17 (spermatogenesis associated 17)	1	normal viability with and without drug	1.05	1.07	0.98
Spata17 (spermatogenesis associated 17)	2	normal viability with and without drug	0.98	0.99	0.99
Spata17 (spermatogenesis associated 17)	3	normal viability with and without drug	1.07	1.11	0.96
Spata17 (spermatogenesis associated 17)	4	normal viability with and without drug	0.97	1.03	0.94

A stretch from the list above, for reference:
target	siRNA no.	combined effect class	viability with doxorubicin, vs NT1	viability ratio, doxorubicin over no drug	viability without drug, vs NT1
Brat1 (BRCA1-associated ATM activator 1)	4	normal viability with and without drug	0.86	0.87	0.99
Spata17 (spermatogenesis associated 17)	1	normal viability with and without drug	1.05	1.07	0.98
Spata17 (spermatogenesis associated 17)	2	normal viability with and without drug	0.98	0.99	0.99
